For some of these results: Weaker means in comparison with the reference protein, sequence or condition of that experiment. For some of these results: The exact form of at least one protein or probe is not confirmed. For some of these results: At least one verdict rests on a figure or table, not on a statement of the authors.
Legend:
[1] = target: A13DBD WT (mouse (murine)) (UniProt Q62424); assay: NMR; conditions: complex used for methyl assignment, NMR complex: 20 mM NaPO4 pH 6.0, 5 mM MgCl2, 10% D2O, 310 K, recombinant protein, residues 320-386, protein details: His-tag removed by thrombin, letters put together from the description
[2] = target: A13DBD WT (mouse (murine)) (UniProt Q62424); assay: competition with a labelled probe; conditions: 1 uM or more needed to displace consensus, 400 nM protein; recombinant protein; residues 320-386; protein details: His-tag removed by thrombin; label: unlabeled competitor; folded or branched DNA

Amino acid sequences for entries named in this document (tags omitted). Residues count along the entry.
UniProt Q62424, 320-386: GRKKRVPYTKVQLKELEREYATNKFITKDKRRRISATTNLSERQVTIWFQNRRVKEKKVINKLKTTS

Sequence: CAAAUAAAATC / GATTTTATTTG [11-mer T5U]
- binding result ([1]; deoxyuridine at T5 (DNA strand)): binds

Sequence: CAAATAAAATC / GATTTUATTTG [11-mer T6*dU (T17U)]
- binding result ([1]; deoxyuridine at T6*): binds

Sequence: TGACTGACTGACTGCCCCCCAGTCAG [Scrambled]
- binding result [2]: binds more weakly

Sequence: CAAATAAAATC / GATTTTAUTTG [11-mer T4*dU (T19U)]
- binding result ([1]; deoxyuridine at T4*): binds
